Some of the results follow. The main result of the screen is listed elsewhere. These columns were measured beside it and carry no call. Compounds called inactive in the main read-out are mostly missing here. Potencies come from curve fits of mixed quality, noted in brackets.
experiment: IkB Signaling; conditions: ABC-DLBCL IkBa-CBG/CBR dual luciferase ratio (green luciferase fused to IkBa over red control in OCI-Ly3 lymphoma cells), 4 h; measured here: control luc red channel unless noted
Method in brief: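 In this assay, an IκBα–CBG68 fusion accumulates when IKK-driven degradation is blocked; native CBR normalizes for cell number. OCI-Ly3 cells were treated 4 h with compound and doxycycline, then green and red light read after Chroma-Glo addition.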

SMILES	AC50
CCOc1ccc(/C=C/c2nc(C#N)c(NC(C)c3ccccc3)o2)cc1 (configuration not stated)	39.8 µM [falling, single point]
COc1ccc(C)cc1NC(=O)Nc1cccc(OCc2cc(=O)n3ccc(C)cc3n2)c1	1.58 µM [falling, full curve]
Cc1ccccc1OCC(=O)NCC(c1ccc(Cl)cc1)N1CCCCC1 (configuration not stated)	31.6 µM [falling, single point]
CCOC(=O)c1ccc(-n2c(CCC(=O)O)ccc2-c2ccccc2)cc1	25.1 µM [falling, partial curve]
COc1ccc(C(=O)CC2(O)C(=O)N(Cc3cccc(C(F)(F)F)c3)c3ccccc32)cc1 (configuration not stated)	39.8 µM [falling, single point]
COc1cccc(C(=O)N2c3ncnn3C3(CCCCC3)[C@@H]3CCCC[C@@H]32)c1	12.6 µM [falling, partial curve]
O=C(CC(c1ccccc1)c1cc(Br)ccc1O)NCc1ccco1 (configuration not stated)	15.8 µM [falling, partial curve]
CN(Cc1ccccc1)S(=O)(=O)c1ccc(NC(=O)c2cc(=O)c3ccccc3o2)cc1	3.16 µM [falling, full curve]
CCc1cccc(C)c1NC(=O)CN1C(=O)C2(SCC(=O)N2c2cccc(F)c2)c2ccccc21 (configuration not stated)	25.1 µM [falling, single point]
CCOc1cccc2cc(S(=O)(=O)c3ccccc3F)c(=O)oc12	39.8 µM [falling, single point]
COc1cccc(-c2nc(SCC(=O)NC3CCCC3)c(-c3ccc(C)cc3)[nH]2)c1	10 µM [falling, partial curve]
Cc1ccc(CNC(=O)c2ccc3nc(SCc4ccc(F)cc4)[nH]c3c2)cc1	10 µM [falling, partial curve]
CCN(CC)C(=O)CSc1nc(-c2ccc(C)cc2)nc2c1Cc1c(CO)cnc(C)c1O2	0.0251 µM [rising, full curve, poor fit]
CCc1cccc(NC(=O)C(Cc2ccccc2)n2cccc2)c1 (configuration not stated)	39.8 µM [falling, single point]
CCc1ccc(NC(=O)CN(c2cc(C)cc(C)c2)S(=O)(=O)c2c(C)[nH]c(=O)[nH]c2=O)cc1	39.8 µM [falling, single point]
CCCOc1cccc(C(=O)Nc2cc(-c3ccccc3)no2)c1	3.98 µM [falling, partial curve]
Cc1ccc(C)c(N2CCN(C(=O)CSCc3ccccc3Cl)CC2)c1	5.01 µM [falling, partial curve]

Taken from the listing, 2 compounds:
SMILES	AC50
CCc1cccc(NC(=O)C(Cc2ccccc2)n2cccc2)c1 (configuration not stated)	39.8 µM [falling, single point]
CCc1ccc(NC(=O)CN(c2cc(C)cc(C)c2)S(=O)(=O)c2c(C)[nH]c(=O)[nH]c2=O)cc1	39.8 µM [falling, single point]
